Source: patent publication US9371521B2, “Substituted pyrazinedithiol reducing agents” (Wisconsin Alumni Research Foundation, priority 2014, dated 2016)

Assay: Equilibrium reaction with oxidized βME
Format: physicochemical
Settings: excess reduced BMMP, 24 h, pH 7.0, HPLC

## SCc1nccnc1CS [BMMP, 2,3-bis(mercaptomethyl)pyrazine]
  Extent of reduction of βMEox at equilibrium: quantitative reduction; also recorded: complete reduction

Entries after “also recorded” stand apart in the source; their conditions may differ.
